Source: patent US20160031945A1 (INDIANA UNIVERSITY RESEARCH AND TECHNOLOGY, published 2016)
No constants are given. Whether binding was seen depends on the method and setting. Some entries that bind do so weakly or less than the wild type.

Tests used:
[1] = molecular target: N-type voltage-gated calcium channel CaV2.2 (rat) (UniProt Q02294); assay: far-Western on CRMP-2 15-mer peptide array overlaid with spinal cord lysates
[2] = molecular target: N-type voltage-gated calcium channel CaV2.2 (rat) (UniProt Q02294); assay: far-Western on CRMP-2 15-mer peptide array overlaid with rat brain synaptosomes

- binding [1]: binds
- binding [2]: binds
Binder: ARSRLAELRGVPRGL [CBD3 peptide (Ca2+ channel binding domain 3 peptide of CRMP-2)]
